Leishmania in macrophages: 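Cell assay of Leishmania donovani living inside macrophages; the read-out is not stated. Concentration: 30 µM. Direction is inferred from retests: higher values go with stronger inhibition. Size under these conditions: about 69,000 compounds, about 1,000 of them at 50% or above in at least one test.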
MtTrpRS: 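Enzyme assay of tryptophanyl-tRNA synthetase; the read-out is not stated. Target: Tryptophan-tRNA ligase, Mycobacterium tuberculosis (UniProt P9WFT3). Tested at 10 µM. Direction is not recorded; retested compounds ran higher, which suggests that high means inhibition. Of about 65,000 compounds tested this way, about 64 (0.098%) reached 50% or more in at least one test.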
Toxoplasma: 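Assay of Toxoplasma gondii numbers, read through their beta-galactosidase reporter with a colour substrate. Concentration: 10 µM. Higher reads as fewer parasites (inferred from which compounds were picked for retests). Of about 67,000 compounds tested this way, about 260 (0.38%) reached 50% or more in at least one test.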
CoaBC: 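Enzyme assay of CoaBC with a phosphate dye (Biomol Green) read at 650 nm. Target: Coenzyme A biosynthesis protein CoaBC, Mycobacterium tuberculosis (UniProt P9WNZ1). Concentration: 30 µM. Higher reads as stronger inhibition, judged from the few compounds that gave an IC50. Most strong results did not repeat in a second test. About 67,000 compounds were tested under these conditions; 0.06% (about 40) showed 50% or more at least once.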

Protein sequences, listed by entry. Tags and fused reporters are not part of them.
UniProt P9WFT3, whole entry: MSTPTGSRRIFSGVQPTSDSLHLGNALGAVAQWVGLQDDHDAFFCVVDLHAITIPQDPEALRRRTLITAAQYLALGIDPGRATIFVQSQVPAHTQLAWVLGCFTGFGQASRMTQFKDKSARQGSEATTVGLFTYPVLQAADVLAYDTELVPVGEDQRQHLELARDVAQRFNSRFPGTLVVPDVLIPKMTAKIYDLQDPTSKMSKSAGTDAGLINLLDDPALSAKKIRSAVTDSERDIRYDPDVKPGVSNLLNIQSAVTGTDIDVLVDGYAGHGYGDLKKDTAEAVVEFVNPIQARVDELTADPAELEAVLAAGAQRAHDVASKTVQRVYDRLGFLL
UniProt P9WNZ1, whole entry: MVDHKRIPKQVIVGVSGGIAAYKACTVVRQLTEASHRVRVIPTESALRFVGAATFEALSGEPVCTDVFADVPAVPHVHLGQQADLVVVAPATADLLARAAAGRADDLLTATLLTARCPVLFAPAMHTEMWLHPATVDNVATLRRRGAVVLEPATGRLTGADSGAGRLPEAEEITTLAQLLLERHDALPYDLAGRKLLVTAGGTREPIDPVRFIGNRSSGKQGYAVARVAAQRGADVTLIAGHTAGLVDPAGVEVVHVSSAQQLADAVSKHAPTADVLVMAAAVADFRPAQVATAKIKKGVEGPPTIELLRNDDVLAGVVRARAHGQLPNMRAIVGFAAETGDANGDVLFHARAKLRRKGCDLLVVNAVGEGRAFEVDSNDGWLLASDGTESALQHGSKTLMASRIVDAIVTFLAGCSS

Values are the deposited “Percent Effect”, in %. The record does not define 0% and 100%; most values in the screen are far below 50% and negative numbers occur (in some assays of this library far below -100). This is an unselected part of the compounds tested. Two or more numbers in one place are separate tests of the same structure; such repeats can differ widely. A dash means the value is not listed here; it may have been measured.

compound | Leishmania in macrophages | MtTrpRS | Toxoplasma | CoaBC
COc1ccc(CCN2CCc3c(nc(C4CC4)n3C)C2)cc1 | -5.828% | -2.478% | 0% | 0.9639%
CC(c1ccncc1)N(C)C(=O)NCCOc1ccc(C#N)cc1 (stereo unspecified) | -15.68% | 3.168% | -3.917% | -2.184%
c1cc(CN2CCOC[C@H]2c2nc(-c3ccncc3)c[nH]2)ccn1 | 25.29% | 0.3814% | 1.611% | 6.09%
CN(C)S(=O)(=O)N1CC[C@]2(C[C@@H](OCc3ccccn3)CO2)C1 | - | 0.549% | - | 11.68%
NC(=O)CS(=O)(=O)Cc1ccc(OCc2ccc(F)cc2)cc1 | 11.98% | -6.963% | 4.639% | -
Cc1ccc(NC(=O)N2CCCC2)c(OCC2CCCO2)c1 (stereo unspecified) | 12.36% | -1.74% | 3.525% | 3.584%
NCc1cnn(-c2ccccc2C(=O)N2CCCC(C(N)=O)C2)c1 (stereo unspecified) | -7.634% | 14.74% | - | 6.176%
Cc1cccc(C2CCCCN2C(=O)CCCS(C)(=O)=O)c1C (stereo unspecified) | -10.45% | -0.3673% | -3.228% | 2.539%
O=C1NCCN1C1CCN(c2ccnc(-c3ccccc3)n2)CC1 | 37.08% | -4.479% | 1.441% | 9.677%
O=C([C@H]1CC[C@@H]2[C@@H](CCN2C2CCCC2)O1)N1CCOCC1 | - | - | - | 3.515%
CC(C)(C)C(NC(=O)CCCS(C)(=O)=O)c1ccc(F)cc1F (stereo unspecified) | 19.69% | -3.268% | -22.44% | 1.217%
OCc1c(Cl)ncn1-c1ccc(F)cc1 | 25.45% | 5.935% | 7.35% | 3.03%
NCc1cn(-c2ccccc2C(=O)NCc2ccccc2Cl)cn1 | 12.66% & -3.576% | - | 1.759% | 1.695%
O=C(Cc1cccc(F)c1)N1CCc2ncnc(N3CCCC3)c2CC1 | 20.76% | 2.913% | -2.211% | -
CCn1nc(C)c2nnn(CC(=O)Nc3cccc(F)c3)c(=O)c21 | -42.25% | 2.332% | -2.626% | 3.464%
Cc1cccc(-n2nc(CC(C)C)nc2CCn2ccc(=O)[nH]c2=O)c1 | 7.158% | -8.93% | -3.604% | 4.959%
O=C1CSC(c2ccsc2)c2c(n(C3CCCC3)[nH]c2=O)N1 (stereo unspecified) | -2.038% | 2.451% | 1.963% | 5.808%
O=C1Nc2ccccc2/C1=C1\CCCCCN1 | 21.08% | -1.877% | 14.18% | -1.205%
O=C(O)c1cnc(N2CCC(c3nccn3CC3CC3)CC2)c(Cl)c1 | 11.21% | -1.288% | -7.65% | 1.082%
CCS(=O)(=O)N1Cc2ncn(C)c2C(COCC2CCOCC2)C1.O=C(O)C(F)(F)F (stereo unspecified) | 14.83% | - | -11.6% | -
CCCc1n[nH]c(C2CN(CC(=O)N(C)Cc3ccco3)CCO2)n1 (stereo unspecified) | 18.4% | -1.413% | 2.483% | -4.234%
CC(c1nc(C2CC2)no1)N1CCN(CCS(C)(=O)=O)CC1 (stereo unspecified) | 50.3% | -0.4817% | -2.185% | 0%
COC(=O)c1ccoc1CN(C)CC(=O)NC1CCS(=O)(=O)C1 (stereo unspecified) | 14.07% | 2.12% | 9.762% | 6.149%
CC1(C)[C@H]2CC=C(CN3CCCn4nc(CCC(=O)O)cc4C3)[C@@H]1C2 | - | 0.06345% | - | 2.73%
COCCOc1ncccc1C(=O)N(C)c1ccc(OC)c(OC)c1 | 19.97% | 2.119% | 8.79% | -4.024%
Cc1n[nH]c(C2CN(Cc3csc(C4CCCCC4)n3)CCO2)n1 (stereo unspecified) | -56.02% | 1.821% | 2.862% | 8.471%
CC(NC1CCSCC1)c1ccccc1-n1cccn1 (stereo unspecified) | 36.33% | -0.7424% | 2.116% | -3.435%
O=C(c1ccco1)N1CCC2(CCC(=O)N2Cc2ccncc2)CC1 | 1.725% | -2.326% | -13.65% | 0.6435%
COCCN1CCC1c1cc(NC2CCCC2)nc(C)n1 (stereo unspecified) | 37.96% | -5.567% | 1.713% | -0.2427%
Cc1cnc(C(=O)N2CC(=O)N(c3ccccc3Cl)CC2C)cn1 (stereo unspecified) | -0.1524% | 4.354% | 9.02% | 3.396%
Cc1ccc(N2CCC3(CCN(C(=O)c4ccnnc4)CC3)CC2)nn1.O=C(O)C(F)(F)F | 8.153% | - | -0.5175% | -
Cc1cc(N2CCCN(C(=O)Cc3ccc(O)c(Cl)c3)CC2)ccn1 | -16.84% | -5.016% | 7.919% | -23.01%
CNC(=O)C1(c2cnccn2)CCCN1C(=O)Cc1ccsc1 (stereo unspecified) | 20.84% | -3.317% | -15.1% | 0.7884%
CN1CCC(N(C)CCC(=O)N2CCC(OCc3ccccc3)CC2)C1 (stereo unspecified) | -32.81% | 4.924% | -2.488% | 3.659%
CCN1CCN(c2ccc(C(=O)NCCOC)cc2F)CC1 | 8.945% | 2.763% | 3.546% | -5.16%
c1ccc(CCc2noc(CN3CCC(N4CCSCC4)CC3)n2)cc1 | 11.3% | -3.717% | 4.503% | -4.091%
Cc1ccc(C(=O)NCC2COCCO2)c(=O)[nH]1 (stereo unspecified) | -1.237% | 0.4955% | 6.664% | 0.4969%
COc1ccc(CC(C)(O)CNC(=O)NCc2cccs2)cc1 (stereo unspecified) | 17.65% | -0.6861% | -23.1% | -3.361%
CNS(=O)(=O)c1cccc(C(C)NCc2cccc(C)c2C)c1 (stereo unspecified) | 17.07% | -5.972% | 0.268% | 0.3968%
CCS(=O)(=O)N1CCC2(C1)C(=O)N(C)CCN2Cc1ccncc1 (stereo unspecified) | - | 0.08032% | - | -1.794%
CS(=O)(=O)CCn1ccc(NC(=O)Cc2ccccc2Cl)n1 | -9.488% | -1.537% | -29.42% | 10.42%
Cc1nc(C)c(C(=O)N2CCCC2c2nnc3n2CCCCC3)s1 (stereo unspecified) | 16.97% | 1.126% | 1.324% | -0.6211%
Cc1nc(N(C)C)nc(-c2cccc(-c3ccn(CCCO)n3)c2)c1C | 3.548% | -1.44% | 0.904% | 3.398%
O=C(COc1coc(CN2CCCCC2)cc1=O)Nc1ccc(Cl)cc1 | -7.083% | -3.819% | 3.945% | 0.1346%
O=C(CCN1CCOC(Cn2cccn2)C1)NC1CCCC1 (stereo unspecified) | -1.623% | -0.4873% | 4.893% | 9.138%
CC(=O)N1CCC(c2nc3ccc(-c4cccc(F)c4)cn3n2)CC1 | 23.56% | - | 7.849% | 2.303%
CN(C)S(=O)(=O)N1CCN(C(=O)OC(C)(C)C)CC12CCCCC2 | 5.768% | -0.8414% | -11.85% | -0.4819%
[H][C@@]12CCN(C(=O)C3CC3)C[C@]1([H])OCCN(c1ccsc1)C2=O | 21.04% | - | 14.29% | -
O=C(CC1=CCCCC1)NCc1ccnc(OC2CCOCC2)c1 | 13.34% | -3.423% | -2.193% | 9.627%
Cn1ccnc1CN1CCC2(CC1)Cc1ccccc1CNC2=O | - | - | - | -1.22%
Cc1ccc([C@H]2CN(C(=O)CC3CCC3)C[C@@H]2N)o1 | 10.34% | 1.083% | -1.498% | 6.762%
COc1cc(C)nc(N2CCN(C(C)c3nc(C4CC4)no3)CC2)n1 (stereo unspecified) | 13.94% | -0.6192% | -3.196% | -
Cc1noc(C)c1CN1CCCC2(C1)CN(c1nccs1)CCO2.O=C(O)C(F)(F)F (stereo unspecified) | -5.841% | - | 3.211% | -
O=C(O)C(F)(F)F.O=C(O)C(F)(F)F.[H][C@@]12C[C@@H](Oc3ccc(C)cc3)CN1CCN(Cc1nccn1C)C2 | -13.39% | - | 9.239% | -

4 of the entries, repeated:

{"compound": "OCc1c(Cl)ncn1-c1ccc(F)cc1", "Leishmania in macrophages": 25.45, "MtTrpRS": 5.935, "Toxoplasma": 7.35, "CoaBC": 3.03}
{"compound": "Cc1ccc(C(=O)NCC2COCCO2)c(=O)[nH]1", "stereo": "stereo unspecified", "Leishmania in macrophages": -1.237, "MtTrpRS": 0.4955, "Toxoplasma": 6.664, "CoaBC": 0.4969}
{"compound": "CCn1nc(C)c2nnn(CC(=O)Nc3cccc(F)c3)c(=O)c21", "Leishmania in macrophages": -42.25, "MtTrpRS": 2.332, "Toxoplasma": -2.626, "CoaBC": 3.464}
{"compound": "Cc1cnc(C(=O)N2CC(=O)N(c3ccccc3Cl)CC2C)cn1", "stereo": "stereo unspecified", "Leishmania in macrophages": -0.1524, "MtTrpRS": 4.354, "Toxoplasma": 9.02, "CoaBC": 3.396}

Source: ChEMBL document CHEMBL3988442, “University of Dundee, Small-Polar-MMV Screening Library” (2021).